In this test the target is CD28 on monkey PBMC (monkey). The test can be described thus: cell-based or functional assay.

B1: CD28-A7 (designed binder)
chain: CGPGRFQCESGQCIPATWVCDGENDCVDDSDEKSCATTAPTCGSGQFRCSNGNCLPLRLGCDGVDDCGDSSDEPLDPCAATVRT
Consider B1, for which the “IC50, PBMC assay on monkey cells” value stood at 2 nM.

Values taken from patent US20050053973A1 (published 2005).
